Data from patent publication US9725423B2, “Tetrazolinone compound and applications thereof” (SUMITOMO CHEMICAL COMPANY, LIMITED, priority 2012, dated 2017).
Some entries share one result that the patent states for a list of compounds.

Legend:
Format in all cases: in vivo
[1] = tested on: wheat leaf blotch fungus (Septoria tritici); experiment: Wheat leaf blotch control test, foliar spray on wheat (Test Examples 5, 11); conditions: 500 ppm, wheat (APOGEE), inoculated four days after spraying
[2] = tested on: cucumber powdery mildew fungus (Sphaerotheca fuliginea); experiment: Cucumber powdery mildew control test, foliar spray on cucumber (Test Examples 6, 12, Comparative Test Example); conditions: 500 ppm, cucumber (SAGAMI HANJIRO), 8 days after inoculation
[3] = tested on: barley net blotch fungus (Pyrenophora teres); experiment: Barley net blotch control test, foliar spray on barley (Test Examples 3, 9); conditions: barley (MIKAMO GOLDEN), inoculated two days after spraying
[4] = tested on: kidney bean stem rot fungus (Sclerotinia sclerotiorum); experiment: Kidney bean stem rot control test, foliar spray on kidney bean (Test Examples 4, 10); conditions: 500 ppm, kidney bean (NAGAUZURA INGEN), four days after inoculation
[5] = tested on: barley scald fungus (Rhynchosporium secalis); experiment: Barley scald control test, foliar spray on barley (Test Example 14); conditions: 200 ppm, barley (MIKAMO GOLDEN), inoculated two days after spraying

Measured: area of lesion spots relative to that on an untreated plant

CC(=NOCc1c(C2CC2)cccc1-n1nnn(C)c1=O)c1cccc2c1CCCC2 [present compound 128, 1-{3-cyclopropyl-2-[1-(5,6,7,8-tetrahydronaphthalen-1-yl)ethylideneaminooxymethyl]phenyl}-4-methyl-1,4-dihydrotetrazol-5-one]
≤ 30%: [1] | [2] | [3]; 200 ppm | [4] | [5]

CCc1cccc(-n2nnn(C)c2=O)c1CON=C(C)c1cccc2c1CCCC2 [present compound 129, 1-{3-ethyl-2-[1-(5,6,7,8-tetrahydronaphthalen-1-yl)ethylideneaminooxymethyl]phenyl}-4-methyl-1,4-dihydrotetrazol-5-one]
≤ 30%: [1] | [2] | [3]; 500 ppm | [4] | [5]

CC(=NOCc1c(C)cccc1-n1nnn(C)c1=O)c1cccc(C)c1C [present compound 131, 1-{2-[1-(2,3-dimethylphenyl)ethylideneaminooxymethyl]-3-methylphenyl}-4-methyl-1,4-dihydrotetrazol-5-one]
≤ 30%: [1] | [2] | [3]; 500 ppm | [4] | [5]

COc1cccc(-n2nnn(C)c2=O)c1CON=C(C)c1cccc2c1CCC2 [present compound 132, 1-[2-(1-indan-4-ylethylideneaminooxymethyl)-3-methoxyphenyl]-4-methyl-1,4-dihydrotetrazol-5-one]
≤ 30%: [1] | [2] | [3]; 500 ppm | [4] | [5]

CC(=NOCc1c(C)cccc1-n1nnn(C)c1=O)c1cccc(Cl)c1C [present compound 133, 1-{2-[1-(3-chloro-2-methylphenyl)ethylideneaminooxymethyl]-3-methylphenyl}-4-methyl-1,4-dihydrotetrazol-5-one]
≤ 30%: [1] | [2] | [3]; 500 ppm | [4] | [5]

COc1ccc(C(C)=NOCc2c(C)cccc2-n2nnn(C)c2=O)c2c1CCC2 [present compound 136, 1-{2-[1-(7-methoxyindan-4-yl)ethylideneaminooxymethyl]-3-methylphenyl}-4-methyl-1,4-dihydrotetrazol-5-one]
≤ 30%: [1] | [2] | [3]; 500 ppm | [4] | [5]

CCc1cccc(-n2nnn(C)c2=O)c1CON=C(C)c1ccc(OC)c2c1CCC2 [present compound 137, 1-{3-ethyl-2-[1-(7-methoxyindan-4-yl)ethylideneaminooxymethyl]phenyl}-4-methyl-1,4-dihydrotetrazol-5-one]
≤ 30%: [1] | [2] | [3]; 500 ppm | [4] | [5]

COc1ccc(C(C)=NOCc2c(C3CC3)cccc2-n2nnn(C)c2=O)c2c1CCC2 [present compound 138, 1-{3-cyclopropyl-2-[1-(7-methoxyindan-4-yl)ethylideneaminooxymethyl]phenyl}-4-methyl-1,4-dihydrotetrazol-5-one]
≤ 30%: [1] | [2] | [3]; 500 ppm | [4] | [5]

COc1ccc(C(C)=NOCc2c(C)cccc2-n2nnn(C)c2=O)cc1C(F)(F)F [present compound 139, 1-{2-[1-(4-methoxy-3-trifluoromethylphenyl)ethylideneaminooxymethy 1]-3-methylphenyl}-4-methyl-1,4-dihydrotetrazol-5-one]
≤ 30%: [1] | [2] | [3]; 500 ppm | [4] | [5]

CC(=NOCc1c(Cl)cccc1-n1nnn(C)c1=O)c1cccc2c1CCC2 [present compound 142, 1-[3-chloro-2-(1-indan-4-ylethylideneaminooxymethyl)phenyl]-4-methyl-1,4-dihydrotetrazol-5-one]
≤ 30%: [1] | [2] | [3]; 500 ppm | [4] | [5]

CC(=NOCc1c(C)cccc1-n1nnn(C)c1=O)c1cccc(C(F)(F)F)c1C [present compound 143, 1-{3-methyl-2-[1-(2-methy 3-difluoromethylphenyl)ethylideneaminooxymethyl]phenyl}-4-methyl-1,4-dihydrotetrazol-5-one]
≤ 30%: [1] | [2] | [3]; 500 ppm | [4] | [5]

CCc1cccc(C(C)=NOCc2c(C)cccc2-n2nnn(C)c2=O)c1C [present compound 145, 1-{2-[1-(3-ethyl-2-methylphenyl)ethylideneaminooxymethyl]-3-methylphenyl}-4-methyl-1,4-dihydrotetrazol-5-one]
≤ 30%: [1] | [2] | [3]; 500 ppm | [4] | [5]

CC(=NOCc1c(C)cccc1-n1nnn(C)c1=O)c1ccccc1 [present compound 149, 1-[2-(1-phenylethylideneaminooxymethyl)-3-methylphenyl]-4-methyl-1,4-dihydrotetrazol-5-one]
≤ 30%: [1] | [2] | [3]; 500 ppm | [4] | [5]
